This is a selection; strong and weak results do not stand in their true shares. The calls were merged from several studies; some rest on single wells. This is one part of the list.
Legend:
Details in all cases: stereoisomer not certain
[1] = system: T1, 
T1 sequence (whole entry): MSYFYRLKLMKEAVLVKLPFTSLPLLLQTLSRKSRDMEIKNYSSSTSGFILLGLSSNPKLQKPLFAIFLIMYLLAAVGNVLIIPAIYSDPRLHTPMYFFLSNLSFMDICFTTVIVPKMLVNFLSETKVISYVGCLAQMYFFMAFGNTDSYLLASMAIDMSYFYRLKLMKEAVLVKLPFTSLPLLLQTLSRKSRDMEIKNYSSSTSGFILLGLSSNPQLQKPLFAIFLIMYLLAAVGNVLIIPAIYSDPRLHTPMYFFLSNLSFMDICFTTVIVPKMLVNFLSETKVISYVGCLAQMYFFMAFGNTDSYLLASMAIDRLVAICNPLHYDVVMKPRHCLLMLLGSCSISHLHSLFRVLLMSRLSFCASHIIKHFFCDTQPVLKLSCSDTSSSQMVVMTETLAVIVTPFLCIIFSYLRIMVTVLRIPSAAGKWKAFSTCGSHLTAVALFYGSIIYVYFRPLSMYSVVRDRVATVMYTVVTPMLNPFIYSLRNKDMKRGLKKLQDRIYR
Procedure, shortened: (§1)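 Transient luciferase assays in mammalian cell lines were common, though methods varied by source. The values come from published papers and their supplementary material, with extra details from the original authors when needed. Responsive refers to a measured signal the original authors judged statistically different from baseline, and non-responsive (inactive) to the remainder.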

By UniProt entry, the sequences of proteins in these tests, tags left out. Where a name states a change or a piece, a line headed by the entry shows the natural chain unless it says otherwise.
UniProt Q8N350: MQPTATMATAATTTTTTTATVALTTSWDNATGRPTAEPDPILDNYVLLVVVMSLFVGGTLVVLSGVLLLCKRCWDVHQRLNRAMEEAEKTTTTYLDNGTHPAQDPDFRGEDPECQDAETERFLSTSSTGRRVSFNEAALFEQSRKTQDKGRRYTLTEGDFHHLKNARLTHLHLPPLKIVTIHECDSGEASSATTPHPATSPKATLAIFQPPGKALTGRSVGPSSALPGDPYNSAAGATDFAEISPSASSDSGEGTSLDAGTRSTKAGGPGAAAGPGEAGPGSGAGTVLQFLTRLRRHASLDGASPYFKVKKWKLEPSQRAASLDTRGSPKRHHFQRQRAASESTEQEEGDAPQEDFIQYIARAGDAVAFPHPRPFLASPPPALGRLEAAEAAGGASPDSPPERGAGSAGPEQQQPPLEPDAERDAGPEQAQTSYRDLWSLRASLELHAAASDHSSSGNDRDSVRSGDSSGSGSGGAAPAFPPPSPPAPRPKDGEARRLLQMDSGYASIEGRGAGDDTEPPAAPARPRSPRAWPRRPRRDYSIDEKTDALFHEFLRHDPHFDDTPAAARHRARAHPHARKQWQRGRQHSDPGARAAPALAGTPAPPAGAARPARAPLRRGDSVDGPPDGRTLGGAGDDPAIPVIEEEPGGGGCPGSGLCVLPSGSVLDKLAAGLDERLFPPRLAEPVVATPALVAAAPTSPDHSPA

A0A140T8K4 = system: T2, A0A140T8K4
T2 sequence (whole entry): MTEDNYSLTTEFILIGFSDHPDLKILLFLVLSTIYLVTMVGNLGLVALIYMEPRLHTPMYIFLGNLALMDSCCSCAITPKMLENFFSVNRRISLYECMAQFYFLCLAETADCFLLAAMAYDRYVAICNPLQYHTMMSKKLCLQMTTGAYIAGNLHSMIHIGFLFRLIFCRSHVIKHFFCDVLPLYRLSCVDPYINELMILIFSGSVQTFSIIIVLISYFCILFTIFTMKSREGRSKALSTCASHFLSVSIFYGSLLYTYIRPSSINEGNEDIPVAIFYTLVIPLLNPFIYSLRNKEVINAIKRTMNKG
Procedure, shortened: as §1

A0A1L1SVG7 = system: T3, A0A1L1SVG7
T3 sequence (whole entry): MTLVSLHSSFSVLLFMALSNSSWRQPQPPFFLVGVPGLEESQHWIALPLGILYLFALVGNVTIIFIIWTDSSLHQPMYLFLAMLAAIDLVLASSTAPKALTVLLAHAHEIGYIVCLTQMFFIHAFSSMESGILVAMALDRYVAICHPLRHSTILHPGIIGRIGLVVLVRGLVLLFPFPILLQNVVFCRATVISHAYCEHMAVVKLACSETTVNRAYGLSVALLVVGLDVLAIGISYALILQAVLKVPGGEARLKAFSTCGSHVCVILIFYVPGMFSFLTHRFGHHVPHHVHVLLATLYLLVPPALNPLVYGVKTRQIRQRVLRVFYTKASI
Procedure, shortened: as §1

O1020 = system: T4, O1020
T4 sequence (whole entry): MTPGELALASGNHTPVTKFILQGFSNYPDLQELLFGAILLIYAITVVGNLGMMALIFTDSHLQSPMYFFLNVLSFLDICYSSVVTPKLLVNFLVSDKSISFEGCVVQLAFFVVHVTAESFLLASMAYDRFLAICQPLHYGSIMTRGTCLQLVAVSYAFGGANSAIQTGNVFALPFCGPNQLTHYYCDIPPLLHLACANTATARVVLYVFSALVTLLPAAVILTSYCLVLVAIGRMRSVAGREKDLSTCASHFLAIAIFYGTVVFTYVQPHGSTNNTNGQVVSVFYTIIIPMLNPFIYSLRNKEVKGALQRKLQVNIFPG
Procedure, shortened: as §1

O1052 = system: T5, O1052
T5 sequence (whole entry): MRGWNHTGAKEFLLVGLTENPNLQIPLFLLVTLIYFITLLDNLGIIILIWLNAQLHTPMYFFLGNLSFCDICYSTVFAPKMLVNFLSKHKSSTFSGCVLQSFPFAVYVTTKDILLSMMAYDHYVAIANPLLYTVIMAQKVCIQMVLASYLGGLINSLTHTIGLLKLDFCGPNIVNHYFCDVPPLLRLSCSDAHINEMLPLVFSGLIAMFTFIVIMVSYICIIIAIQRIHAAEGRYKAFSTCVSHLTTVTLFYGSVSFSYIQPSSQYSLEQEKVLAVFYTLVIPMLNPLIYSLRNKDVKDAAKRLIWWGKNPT
Procedure, shortened: as §1

O10A2 = system: T6, O10A2
T6 sequence (whole entry): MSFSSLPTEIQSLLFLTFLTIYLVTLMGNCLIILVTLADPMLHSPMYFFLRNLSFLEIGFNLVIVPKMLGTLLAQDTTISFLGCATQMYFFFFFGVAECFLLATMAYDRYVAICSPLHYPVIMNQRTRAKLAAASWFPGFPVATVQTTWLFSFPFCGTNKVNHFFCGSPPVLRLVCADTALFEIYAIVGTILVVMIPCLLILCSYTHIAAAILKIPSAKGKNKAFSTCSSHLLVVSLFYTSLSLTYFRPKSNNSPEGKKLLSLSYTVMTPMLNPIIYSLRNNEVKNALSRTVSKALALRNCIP
Procedure, shortened: as §1

A0A140T8K0 = system: T7, A0A140T8K0
T7 sequence (whole entry): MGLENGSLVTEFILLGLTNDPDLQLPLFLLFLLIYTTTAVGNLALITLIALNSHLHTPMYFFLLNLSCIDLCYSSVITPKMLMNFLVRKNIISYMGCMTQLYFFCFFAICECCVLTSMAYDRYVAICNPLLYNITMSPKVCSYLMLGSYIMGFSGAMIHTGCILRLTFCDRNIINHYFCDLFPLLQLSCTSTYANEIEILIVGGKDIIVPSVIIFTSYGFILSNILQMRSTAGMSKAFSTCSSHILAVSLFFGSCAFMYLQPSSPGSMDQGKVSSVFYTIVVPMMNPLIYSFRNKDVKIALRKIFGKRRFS
Procedure, shortened: as §1

CBARP (Homo sapiens) = CBARP (Homo sapiens) (UniProt Q8N350)
Procedure, shortened: as §1

E1BBG9 I277T = system: E1BBG9 I277T
Procedure, shortened: as §1

E1BBG9 L105I I277T = system: E1BBG9 L105I I277T
Procedure, shortened: as §1

E1BBG9 L105I V205I I277T = system: E1BBG9 L105I V205I I277T
Procedure, shortened: as §1

E1BBG9 L105I V205I = system: E1BBG9 L105I V205I
Procedure, shortened: as §1

E1BBG9 L105I = system: E1BBG9 L105I
Procedure, shortened: as §1

E1BBG9 V205I I277T = system: E1BBG9 V205I I277T
Procedure, shortened: as §1

E1BBG9 V205I = system: E1BBG9 V205I
Procedure, shortened: as §1

Measured: odorant receptor agonist call

CC12CCC(C1)C(C)(C)C2=O (configuration not stated)
inactive: [1] | A0A140T8K4 | A0A1L1SVG7 | O1020 | O1052 | O10A2

COc1ccccc1O
inactive: [1] | A0A140T8K0 | O1020 | O1052 | O10A2

CCCCCCCCCCC=O
inactive: [1] | CBARP (Homo sapiens) | O1020 | O1052 | O10A2

CC(C)CC(=O)O
inactive: [1] | A0A140T8K0 | O1020 | O1052 | O10A2

COC(=O)c1ccccc1O
inactive: [1] | A0A140T8K0 | O1020 | O1052 | O10A2

O=C1CCCCCCCCCCCCCCO1
inactive: [1] | A0A140T8K0 | O1020 | O1052 | O10A2

CC(C)CCC(=O)O
inactive: [1] | O1020 | O1052 | O10A2

C=CC(C)(O)CCC=C(C)C (configuration not stated)
inactive: [1] | A0A140T8K0 | O1020 | O1052 | O10A2

CCCCO
inactive: [1] | A0A140T8K0 | O1020 | O1052 | O10A2

COc1cc(C=O)ccc1O
inactive: [1] | A0A140T8K0 | O1020 | O1052 | O10A2

CCCCCCCC=O
inactive: [1] | A0A140T8K0 | A0A140T8K4 | A0A1L1SVG7 | O1020 | O1052 | O10A2

CCCCCC(C)=O
inactive: [1] | A0A140T8K0 | A0A140T8K4 | A0A1L1SVG7 | O1020 | O1052 | O10A2

CC=Cc1ccc(O)c(OC)c1
active: O1020
inactive: [1] | O1052 | O10A2

CC(=O)OC(C)(C)C1CC=C(C)CC1 (configuration not stated)
inactive: [1] | O1020 | O1052 | O10A2

COc1cc(C)ccc1O
inactive: [1] | O1020 | O1052 | O10A2

CC12C=CCC1C1CCC3=CC(=O)CCC3(C)C1CC2 (configuration not stated)
inactive: [1] | O1020 | O1052 | O10A2

CCCCCCCC=CC=O
inactive: [1] | O1020 | O1052 | O10A2

O=CCc1ccccc1
inactive: [1] | O1020 | O1052 | O10A2

O=C1CCCCCCCCCCCC(=O)OCCO1
inactive: [1] | O1020 | O1052 | O10A2

CC(C)(C)c1ccc(CCC=O)cc1
inactive: [1] | O1020 | O1052 | O10A2

c1ccc(Oc2ccccc2)cc1
inactive: [1] | O1020 | O1052 | O10A2

CCC1(O)C2(C)CCC(C2)C1(C)C (configuration not stated)
inactive: [1] | O1020 | O1052 | O10A2

CCCCCCCCC=O
active: A0A1L1SVG7
inactive: A0A140T8K0 | A0A140T8K4

C=CCc1ccc(OC(C)=O)c(OC)c1
inactive: O1020 | O1052 | O10A2
active: [1]

CC(C)C(=O)O
inactive: [1] | O1020 | O1052 | O10A2

CC(=O)OCC=C(C)CCC=C(C)C
inactive: [1] | O1052 | O10A2
active: O1020

CC1=NC(C)SC1C (configuration not stated)
inactive: [1] | O1020 | O1052 | O10A2

CCCCCCCOC(C)=O
inactive: [1] | O1020 | O1052 | O10A2

CCC=CCCO
inactive: [1] | O1020 | O1052 | O10A2

CCCCCCC=O
inactive: A0A140T8K0 | A0A140T8K4 | A0A1L1SVG7

CCCCCCOC(=O)CCC
inactive: [1] | O1020 | O1052 | O10A2

C=CCSCC=C
inactive: [1] | O1020 | O1052 | O10A2

CC1=CCC(C(C)(C)O)CC1 (configuration not stated)
inactive: [1] | O1020 | O1052 | O10A2

COC(=O)c1ccccc1
inactive: [1] | O1020 | O1052 | O10A2

C=CCc1ccc(O)c(OC)c1
inactive: A0A140T8K0

C=C(C)C1CC=C(C)C(=O)C1 (configuration not stated)
active: A0A140T8K4 | E1BBG9 I277T | E1BBG9 L105I I277T | E1BBG9 L105I V205I I277T | E1BBG9 L105I V205I | E1BBG9 L105I | E1BBG9 V205I I277T | E1BBG9 V205I
inactive: A0A140T8K0 | A0A1L1SVG7

CCCCCCCCOC(C)=O
inactive: [1] | O1020 | O1052 | O10A2

11 entries out of the list, ordered by length of the SMILES, smallest number first.
CCCCO
inactive: [1] | A0A140T8K0 | O1020 | O1052 | O10A2

CCC=CCCO
inactive: [1] | O1020 | O1052 | O10A2

C=CCSCC=C
inactive: [1] | O1020 | O1052 | O10A2

CCCCCCCC=O
inactive: [1] | A0A140T8K0 | A0A140T8K4 | A0A1L1SVG7 | O1020 | O1052 | O10A2

CCCCCCCCC=O
active: A0A1L1SVG7
inactive: A0A140T8K0 | A0A140T8K4

CCCCCCCC=CC=O
inactive: [1] | O1020 | O1052 | O10A2

COc1cc(C)ccc1O
inactive: [1] | O1020 | O1052 | O10A2

CCCCCCCCOC(C)=O
inactive: [1] | O1020 | O1052 | O10A2

COC(=O)c1ccccc1O
inactive: [1] | A0A140T8K0 | O1020 | O1052 | O10A2

C=C(C)C1CC=C(C)C(=O)C1 (configuration not stated)
active: A0A140T8K4 | E1BBG9 I277T | E1BBG9 L105I I277T | E1BBG9 L105I V205I I277T | E1BBG9 L105I V205I | E1BBG9 L105I | E1BBG9 V205I I277T | E1BBG9 V205I
inactive: A0A140T8K0 | A0A1L1SVG7

C=CCc1ccc(OC(C)=O)c(OC)c1
inactive: O1020 | O1052 | O10A2
active: [1]

Later entries.

CC12C=CCC1C1CCC3CC(=O)CCC3(C)C1CC2 (configuration not stated)
active: O1020 | O1052 | O10A2
inactive: [1]

CC(C)(O)CCCC1=CCC(C=O)CC1 (configuration not stated)
inactive: A0A140T8K0 | A0A140T8K4 | A0A1L1SVG7

Reference: the M2OR odorant receptor database
